Values are the deposited “Percent Effect”, in %.
How 0% and 100% were set is not recorded. Most values in the screen are low, and negative values occur.
This is an unselected part of the compounds tested.
Two or more numbers in one place are separate tests of the same structure; such repeats can differ widely.
A dash means the value is not listed here; it may have been measured.

Mtb cholesterol medium: 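Phenotypic screen: M. tuberculosis growth, cholesterol and DPPC medium, 4 days; the read-out is not stated. Compounds at 50 µM. The record gives no direction; compounds that gave an IC50 in retests scored well above the rest, so higher reads as more growth inhibition. Size under these conditions: about 69,000 compounds, about 370 of them at 50% or above in at least one test.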
Mtb glucose medium: 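Whole-cell growth test on Mycobacterium tuberculosis, read after 3 days in glucose-containing 7H9 medium; the read-out is not stated. Tested at 50 µM. Higher reads as more growth inhibition (inferred: compounds with an IC50 in retests scored well above the rest). Of about 69,000 compounds tested this way, about 760 (1.1%) reached 50% or more in at least one test.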

Compound	Mtb cholesterol medium	Mtb glucose medium
O=c1c2ccc(Cl)cc2ncn1CCCN1CCCCC1CO (stereo not drawn)	-0.5613%	16.54%
CC(C)c1noc(CCCC(=O)N2CCN(S(C)(=O)=O)CC2)n1	10.03%	-16.51% and 0.6908%
NC(=O)CN1CCC(C(=O)NCc2ccc3c(c2)OCCCO3)CC1	-13.59%	-6.51%
CC(C)(C#N)c1ccccc1CN1CCC(N2CCCC2=O)CC1	-17.86%	-23.42%
CNC(=O)N1CCN(C(=O)N(C)C)CC2(CC(=O)N(C)C2)C1 (stereo not drawn)	-9.364%	8.535%
Fc1cccc(N2CCCC3(C2)CN(c2cnccn2)CCO3)c1 (stereo not drawn)	-3.226%	2.272%
CCNC(=O)NC(=O)CSC(C)c1c(F)cccc1F (stereo not drawn)	7.549%	16.67%
O=C(O)C(F)(F)F.[H][C@@]12COC[C@]1(COCC1CCCC1)CN(c1ncccn1)C2	-2.889%	7.624%
[H][C@@]12CN(Cc3ccc(OC)cc3)C[C@]1([H])OCC(=O)N2Cc1nccn1C	-31.08%	-26.24% and 3.808%
CC(NC(=O)Cn1cc(-c2ccccc2)cn1)C1CC1 (stereo not drawn)	30.31%	20.21%
CCCOc1cccc(-c2nc3c([nH]2)CCNC3)c1	2.991%	23.32%
O=C(c1nnn(-c2ccc(F)cc2)n1)N1CCC(O)CC1	4.36%	28.47% and 13.79%
O=C(O)C(F)(F)F.[H][C@@]12COC[C@]1(c1nnc(C)o1)CN(Cc1nccs1)C2	-4.828%	27.29% and 10.37%
Cc1noc(C(C)N2CCN(CCC(=O)N3CCOCC3)CC2)n1 (stereo not drawn)	0.5183%	3.83%
COc1ccccc1CN1CCCC2(Cc3ccccc3CNC2=O)C1 (stereo not drawn)	-3.799%	3.078%
Cc1noc(C)c1CN1CCC(N(C)Cc2nnc(C3CC3)n2C)C1 (stereo not drawn)	9.167%	10.07% and -9.56%
C=C(C)COc1ccccc1NC(=O)N1CCOCC(CO)C1 (stereo not drawn)	-	13.59%
Cc1csc(N2CCN(C(=O)CCC(=O)c3ccc(C)s3)CC2)n1	-4.955%	35.79%
NCCn1cc(C(=O)NCc2ccccc2-n2cccn2)nn1	-7.288%	9.474%
Cc1ccc(C(=O)O)c(N2CC(C)(C)[C@@](C)(O)C2)n1	2.702%	16.75%
CC1CCCN(C(=O)c2csc(S(N)(=O)=O)c2)CC1 (stereo not drawn)	-0.9261%	15.67%
CN(C)C(=O)C1OC2(CCN(c3ncc(F)cn3)CC2)c2ccccc21.O=C(O)C(F)(F)F (stereo not drawn)	-0.05277%	16.21%
Cc1noc(-c2ccc(N3CCCC(C(=O)N4CCSCC4)C3)nc2)n1 (stereo not drawn)	-21.11%	-12.78% and -16.13%
CCN1CC(C(=O)NC(C)(C)CC)CC1=O (stereo not drawn)	2.377%	13.83% and -0.1698%
Cc1nn(C)cc1S(=O)(=O)NC1(CN2CCOCC2)CCCCC1	-0.09333%	10.43%
CCCn1c(C)c(CC(=O)N[C@H](C)C(=O)OC)c2c1CC(C)(C)CC2=O	-7.418%	-2.603%
Cc1ccc(CC(=O)N2CCOCC2c2c(C)n[nH]c2C)cc1 (stereo not drawn)	24.61%	-13.12%
CC(=O)NC1CCCN(C(=O)NCc2ccc(-c3ccn[nH]3)cc2)C1 (stereo not drawn)	-6.642%	10.64%
CCOC(=O)CNc1nc(C(C)(C)C)nc2c1cnn2C	8.33%	28.68%
[H][C@]12CC[C@](O)(CC1)C(CN1CCOCC1)N2Cc1ccc(F)cc1 (stereo partly drawn)	3.006%	15.74%
CCOCC(=O)N1CCc2c(ncnc2N2CCOCC2)C1	-14.11%	-5.421%
Cc1cc(C(F)(F)F)nc(C2CCN(C(=O)CO)CC2)n1	3.37% and -0.01418%	-14.4%
COCc1ccccc1C(=O)NCC(O)c1ccccc1F (stereo not drawn)	-10.88%	-8.889%
CN1CCN(c2nsc(-c3ccccc3)c2C#N)CC1	42.18%	41.77%
CCc1ccc(C(=O)N2CCCN(Cc3csc(CC)n3)CC2)o1	21.86%	5.373% and 15.95%
CCS(=O)(=O)N1CCC2(CCCC(=O)N2C)CC1	-9.227%	-4.78%
COc1ccc(C(=O)N2CCCCC2c2nccs2)c(OC)c1 (stereo not drawn)	-29.57%	-1.805%
O=C(NCc1ccncc1)C1=NOC2(CCCNC2)C1 (stereo not drawn)	-30.49%	-39.97%
Cn1cc(S(=O)(=O)NCC(C)(O)c2ccsc2)cn1 (stereo not drawn)	-31.98% and 1.724%	-17.39%
CC(C)c1nc(CN2CCC(CO)CC2)cs1	-29.57%	-44.26%
Cc1nc(CCNC(C)c2ccc3c(c2)OCCCO3)cs1 (stereo not drawn)	12.92%	10.86%
CN(C)C1(CNc2nccc(-c3cnn(C)c3)n2)CCSC1 (stereo not drawn)	-7.831%	4.233% and 10.13%
CN(C)CCN1C(=O)CCC12CCCN(C(=O)CC1CC1)CC2 (stereo not drawn)	13.07% and -9.534%	-22.72%
CC(C)[C@@H]1CN(Cc2ccccc2C#N)C[C@H]1NC(=O)N(C)C	-6.402%	12.8%
Cc1n[nH]cc1C(=O)NCc1cccnc1N1CCc2ccccc2C1	-8.155% and 10.34%	8.053%
Cc1ccccc1C(=O)Nc1ccc([C@H]2OCC(=O)N(C)[C@@H]2CO)cc1	0.2092%	-26.11% and 3.667%
Cc1noc(C)c1C(=O)NCc1ccc(N2CCOCC2)nc1	8.416%	5.211%
O=C(CC1CCCC1)N1CCN(c2ccc(-n3cncn3)nn2)CC1	-5.223%	-3.264% and -9.465%
CCOCC(=O)NCCCn1ccnc1-c1ccccc1	5.097%	17.45%
O=C(NCc1cccnc1N1CCCCC1)c1ccc2c(c1)OCO2	6.747%	28.71%
Cc1n[nH]c2nc(-c3cc(Br)ccc3O)cc(C(=O)O)c12	-16.28%	-8.774%
NC(=O)CN1CCN(S(=O)(=O)N2CCCC2c2ccco2)CC1 (stereo not drawn)	12.13%	-0.3063% and 0.7792%
CC(C)=CCn1ncc(N2CCOCC2)cc1=O	1.567%	18.47%

Data taken from ChEMBL document CHEMBL3988442, “University of Dundee, Small-Polar-MMV Screening Library” (2021).